# Assay results

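Living-cell ATP in ovarian and cervical tumor lines is read as light output two days after treatment, as a measure of cell killing. Each compound was tested at five concentrations, including 0.46, 2.3 and 57.5 µM as the top dose. The number is the fitted AC50 potency, and a lower value means stronger cell killing. Calls follow an activity score built from curve class and fitted AC50: 40 to 100 is active, 1 to 39 is inconclusive, and 0 is inactive.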

Values are in µM. All entries here are filed as inconclusive. These entries are mostly ones the record files as inconclusive; other results of the assay are not listed here. A potency from a partial, single-point or poor curve is only a rough figure. Some entries filed as inconclusive have a full curve. The first word of each remark tells which way the curve ran; it can be opposite to the aim of the assay. Activity scores are not listed here. An entry listed twice with the same setting is a separate test.

structure | setting | Potency (µM) | curve as filed
O=C(c1ccc(/C=C/c2n[nH]c3ccccc23)cc1)N1CCNCC1 | Es-2 | 39.81 | cytotoxic, single point
O=C(c1ccc(/C=C/c2n[nH]c3ccccc23)cc1)N1CCNCC1 | Tov-21-G | 10 | cytotoxic, partial curve
O=C(c1ccc(/C=C/c2n[nH]c3ccccc23)cc1)N1CCNCC1 | SKOV3 | 39.81 | cytotoxic, partial curve, poor fit
O=C(c1ccc(/C=C/c2n[nH]c3ccccc23)cc1)N1CCNCC1 | CASKI | 19.95 | cytotoxic, single point
O=C(c1ccc(/C=C/c2n[nH]c3ccccc23)cc1)N1CCNCC1 | Tov112D | 28.18 | cytotoxic, single point
COc1cc2c(c(O)c1OC/C=C(\C)CC/C=C(/C)CCC=C(C)C)CN(C(CCC(=O)O)C(=O)O)C2=O (centres undefined) | SKOV3 | 3.981 | rising, single point
CN1CCN(C2=Nc3ccccc3Sc3ccc(Cl)cc32)CC1 | PA-1 | 7.08 | cytotoxic, single point
O=C1NCN(c2ccccc2)C12CCN(CCCOc1ccc(F)cc1)CC2 | Hek293T; control line for the selectivity index | 0.1122 | rising, full curve, poor fit
CCCN(CCC)CCc1c[nH]c2ccccc12 | OV90 | 39.81 | cytotoxic, single point
CC1COC2(c3ccccc3Cl)c3cc(Cl)ccc3NC(=O)CN12 (centres undefined) | OV90 | 28.18 | cytotoxic, single point
C=CCNc1nc(NCC=C)nc(N2CCN(C(c3ccc(F)cc3)c3ccc(F)cc3)CC2)n1 | Hek293T; control line for the selectivity index | 35.48 | cytotoxic, partial curve, poor fit
C=CCNc1nc(NCC=C)nc(N2CCN(C(c3ccc(F)cc3)c3ccc(F)cc3)CC2)n1 | CAOV3 | 39.81 | cytotoxic, single point
CC(CCc1ccccc1)NC(C)C(O)c1ccc(O)cc1 (centres undefined) | OV90 | 5.623 | cytotoxic, single point
O=C(c1ccco1)N1CCNCC1 | OV90 | 3.548 | rising, partial curve, poor fit
COc1ncc(Nc2ncc([C@H](C)N3CCN(S(C)(=O)=O)CC3)cc2-c2nc(C)nc(N)n2)cc1F | C33A | 0.3162 | cytotoxic, full curve
COc1ncc(Nc2ncc([C@H](C)N3CCN(S(C)(=O)=O)CC3)cc2-c2nc(C)nc(N)n2)cc1F | Tov-21-G | 3.162 | cytotoxic, full curve
COc1ncc(Nc2ncc([C@H](C)N3CCN(S(C)(=O)=O)CC3)cc2-c2nc(C)nc(N)n2)cc1F | PA-1 | 10 | cytotoxic, partial curve, poor fit
COc1ncc(Nc2ncc([C@H](C)N3CCN(S(C)(=O)=O)CC3)cc2-c2nc(C)nc(N)n2)cc1F | CAOV3 | 17.78 | cytotoxic, partial curve, poor fit
CN(C)C(=O)C(O)C(Cc1ccccc1)NC(=O)c1cc2cc(Cl)ccc2[nH]1 (centres undefined) | Tov-21-G | 39.81 | cytotoxic, single point
CN(C)C(=O)C(O)C(Cc1ccccc1)NC(=O)c1cc2cc(Cl)ccc2[nH]1 (centres undefined) | Hek293T; control line for the selectivity index | 39.81 | rising, single point
CC1(C)CCCC2(C)c3c4c(c(=O)oc(=O)c3=CCC12)=CCC1C(C)(C)CCCC41C (centres undefined) | SKOV3 | 10 | rising, single point
C[C@H]1O[C@@H](O[C@H]2[C@@H](O)C[C@H](O[C@H]3[C@@H](O)C[C@H](O[C@H]4CC[C@@]5(C)[C@H](CC[C@@H]6[C@@H]5CC[C@]5(C)[C@@H](C7=CC(=O)OC7)CC[C@]65O)C4)O[C@@H]3C)O[C@@H]2C)C[C@H](O)[C@@H]1O | JEG-3 | 0.1585 | cytotoxic, full curve, poor fit
C[C@H]1O[C@@H](O[C@H]2[C@@H](O)C[C@H](O[C@H]3[C@@H](O)C[C@H](O[C@H]4CC[C@@]5(C)[C@H](CC[C@@H]6[C@@H]5CC[C@]5(C)[C@@H](C7=CC(=O)OC7)CC[C@]65O)C4)O[C@@H]3C)O[C@@H]2C)C[C@H](O)[C@@H]1O | JEG-3 | 0.2818 | cytotoxic, single point
C[C@H]1O[C@@H](O[C@H]2[C@@H](O)C[C@H](O[C@H]3[C@@H](O)C[C@H](O[C@H]4CC[C@@]5(C)[C@H](CC[C@@H]6[C@@H]5CC[C@]5(C)[C@@H](C7=CC(=O)OC7)CC[C@]65O)C4)O[C@@H]3C)O[C@@H]2C)C[C@H](O)[C@@H]1O | OV90 | 0.7943 | cytotoxic, full curve, poor fit
O=[N+]([O-])c1cccc(S(=O)(=O)NCCNS(=O)(=O)c2cccc([N+](=O)[O-])c2)c1 | CAOV3 | 25.12 | cytotoxic, single point
O=C(CN1CCN(Cc2ccc3c(c2)OCO3)CC1)N1c2ccccc2Sc2ccccc21 | SKOV3 | 6.31 | rising, single point
O=C(O)CC(CCc1ccccc1)OC1OC(CO)C(O)C(O)C1O (centres undefined) | CAOV3 | 2.818 | cytotoxic, single point
O=C(O)CC(CCc1ccccc1)OC1OC(CO)C(O)C(O)C1O (centres undefined) | Hek293T; control line for the selectivity index | 1.122 | cytotoxic, single point
CC1=CC(=O)CC(C)(C)[C@@]1(O)/C=C/C(C)O[C@@H]1O[C@H](CO)[C@@H](O)[C@H](O)[C@H]1O (some centres undefined) | SKOV3 | 0.5012 | rising, full curve
CC(=O)O[C@@H]1CC[C@@]2(C)[C@H](CC[C@@H]3[C@@H]2C[C@H](OC(C)=O)[C@]2(C)[C@@H](C(C)=O)CC[C@@H]32)C1 | SKOV3 | 28.18 | cytotoxic, single point
CCCCCCCCCCCCCCCC[N+](C)(C)CCN(Cc1ccc(OC)cc1)c1ncccn1 | HeLa | 25.12 | cytotoxic, single point
CCCCCCCCCCCCCCCC[N+](C)(C)CCN(Cc1ccc(OC)cc1)c1ncccn1 | C33A | 31.62 | cytotoxic, single point
CCCCCCCCCCCCCCCC[N+](C)(C)CCN(Cc1ccc(OC)cc1)c1ncccn1 | CASKI | 25.12 | cytotoxic, single point
CCCCCCCCCCCCCCCC[N+](C)(C)CCN(Cc1ccc(OC)cc1)c1ncccn1 | Es-2 | 22.39 | cytotoxic, single point
CC1(COc2ccc(CC3SC(=O)NC3=O)cc2)CCCCC1 (centres undefined) | OV90 | 22.39 | cytotoxic, partial curve, poor fit
CCCCCCCC/C=C\CCCCCCCC(=O)NCc1ccc(O)c(OC)c1 | Tov-21-G | 35.48 | cytotoxic, single point
CCCCCCCC/C=C\CCCCCCCC(=O)NCc1ccc(O)c(OC)c1 | PA-1 | 39.81 | cytotoxic, single point
O=C(CCCN1CCC2(CC1)C(=O)NCN2c1ccccc1)c1ccc(F)cc1 | OV90 | 25.12 | cytotoxic, single point
CN(C)CCCOC1(Cc2ccccc2)CCCCCC1 | OV90 | 28.18 | cytotoxic, single point
CC(CC(C#N)(c1ccccc1)c1ccccc1)N(C)C (centres undefined) | OV90 | 39.81 | cytotoxic, partial curve, poor fit
CC(=O)O[C@@H]1[C@@H](O)[C@H](O[C@H]2CC[C@]34C[C@]35CC[C@]3(C)[C@@H]([C@@]6(C)CC[C@@H](C(C)(C)O)O6)[C@@H](O)C[C@@]3(C)[C@@H]5C[C@H](O[C@@H]3O[C@H](CO)[C@@H](O)[C@H](O)[C@H]3O)[C@H]4C2(C)C)OC[C@H]1O | SKOV3 | 39.81 | rising, single point
CC1(C)CCC(C)(C)c2cc(NC(=O)c3ccc(C(=O)O)cc3)ccc21 | SKOV3 | 6.31 | rising, partial curve, poor fit

Repeated from the top, 5 entries:

O=C(c1ccc(/C=C/c2n[nH]c3ccccc23)cc1)N1CCNCC1 [Es-2] read Potency 39.81 µM (cytotoxic, single point).
O=C(c1ccc(/C=C/c2n[nH]c3ccccc23)cc1)N1CCNCC1 [Tov-21-G] read Potency 10 µM (cytotoxic, partial curve).
O=C(c1ccc(/C=C/c2n[nH]c3ccccc23)cc1)N1CCNCC1 [SKOV3] read Potency 39.81 µM (cytotoxic, partial curve, poor fit).
O=C(c1ccc(/C=C/c2n[nH]c3ccccc23)cc1)N1CCNCC1 [CASKI] read Potency 19.95 µM (cytotoxic, single point).
O=C(c1ccc(/C=C/c2n[nH]c3ccccc23)cc1)N1CCNCC1 [Tov112D] read Potency 28.18 µM (cytotoxic, single point).

The results are deposited in PubChem (AID1345084; NCATS, 2018).